Results taken from patent US5861395A, “Compounds useful for inhibition of farnesyl proteins transferase” (Schering Corporation, priority 1997, dated 1999).
At least one compound was matched to its structure with a doubt left.

Biological target: farnesyl protein transferase
Test: FPT IC50 (inhibition of farnesyl protein transferase, in vitro enzyme assay)
Type: biochemical
Settings: Table 2
Description: In Table 2 "Ex. No." stands for "Example Number". In Table 2, FPT IC50 results are less indicated otherwise.

CON=C(N)N1CCC(CC(=O)N2CCN(C3c4ccc(Cl)cc4CCc4cc(Br)cnc43)CC2)CC1 (stereo not shown) [Example 12, 4-[2-[4-(3-BROMO-8-CHLORO-6,11-DIHYDRO-5 H-BENZO[5,6]CYCLOHEPTA[1,2-b]PYRIDIN-11-YL)-1-PIPERAZINYL]-2-OXOETHYL]-N-METHOXY-1-PIPERIDINE-CARBOXIMIDATE]
IC50: 110 nM
